Values of other authors, collected in patent US20250346864A1, “MODULATION OF SATELLITE CELL POLARITY AND ASYMMETRIC CELL DIVISION” (Ottawa Hospital Research Institute, priority 2022, published 2025).
For at least one compound, name, drawing or mass did not settle the structure.

Details: cited from earlier work

Structure (SMILES)	antinociceptive activity
CC(=O)Nc1cc2c(cn1)COc1cc(OC[C@@](C)(N)CC(C)C)ccc1-2 [BMT-124110]	shows antinociceptive activity
Cc1nccc2c1c(=O)n(C)c1cc(OC[C@@H](N)CC(C)C)c(C#N)cc21 [BMT-090605]	shows antinociceptive activity
